According to PubChem BioAssay AID1508600 (Functional Genomics Laboratory (NCATS/FGL), 2020):
Out of some 53,000 sequences screened, about 3,700 (7%) were called active.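 Rule for the calls: active = gene knockdowns whose robust z-score for IL-1 alpha signal is at least 2 or at most -2, so actives lie on both sides; inactive = the rest.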 The list shows a part of the results.

test: Components of the Cytosolic LPS Sensing Pathway: Gene Identification via Genome-wide siRNA Screen; conditions: RAW264.7 macrophages, IL-1a HTRF, actives lie on both sides, screened at 100 nM (by protocol), cells primed 5 h with Pam3CSK4 first;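 note: robust z of the log signal after scaling to non-targeting control siRNA wells of the plate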
In short: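 Three distinct siRNAs per gene were tested singly at 100 nM in RAW264.7 macrophages. Following Pam3CSK4 priming and 24 hour LipidA transfection, IL-1a secretion was read by HTRF.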

| Sequence | z-score |
| --- | --- |
| GCAAACAAAACAAGUGAGCTT against Cyb5r2 | inactive: -0.371 |
| GGAACUGACUCUUGAAAAUTT against Cd14 | inactive: 0.367 |
| CCUAGACAUCAGUAAUGCGTT against Zbtb17 | inactive: -0.43 |
| GGAAACUCUUCACCACAAATT against Cypt1 | inactive: 0.038 |
| CCAAGAGGAAAGCAUAGAUTT against Flii | inactive: 1.79 |
| GGUGAACAACUUUGUCAUCTT against Atat1 | inactive: -0.258 |
| GCGACGCAGAGUGAGAAGATT against Cdk4 | inactive: -1.03 |
| CGGAGGAAUCACAAGUAUATT against Il23r | inactive: -0.245 |
| CGAGGUUGAAGAUCUCUAUTT against Dph6 | inactive: 1.91 |
| GGGAGCCAUUUUUACAGACTT against Ffar4 | inactive: 0.405 |
| GGUCGACAGACUCUUGCAUTT against Mylk3 | inactive: -0.982 |
| GGAGAAGCCUCAUCAACCATT against Fam53b | inactive: -1.33 |
| GGACAUGGCCAGAUACUACTT against Npy | inactive: 0.389 |
| GGAAUCUCACCAAUCCAAATT against Rab14 | inactive: -0.364 |
| GGACUAAAUGGUCAAGAUUTT against Rbm8a | active: -2.74 |
| GGAAGAGAGCGAUUAAAUUTT against Rsrc2 | inactive: 0.839 |
| GGGCUGAAGAUGACUUCAATT against Topors | active: 5.91 |
| GGGAGCUAUUUAUCCUAUUTT against Zc4h2 | inactive: 0.214 |
| GCCUUAAUUUAUCCGAAAGTT against Senp7 | inactive: 0.629 |
| GAGCUGGAGCAAGAAUUCGTT against 4632415L05Rik | inactive: -0.0319 |
| GGUCAAGUGUAACAAAGAATT against Bcorl1 | inactive: -0.417 |
| GGCUUUGUUAGUCUAUGACTT against Dzip1l | inactive: -0.552 |

| Sequence | z-score |
| --- | --- |
| CACAGGAGCCAAUGAUGCUTT against Taar7d | inactive: -0.441 |
| GCAUUAAAGUGCUGUUCUUTT against Ccdc130 | inactive: 0.814 |
| GCUUCAGACCCACGCAUAATT against Taf10 | inactive: -0.179 |
| CCUCAAAUUUUGGGUCUCATT against Bcat2 | inactive: -1.48 |
| CGCGCUGCCAGAUACACUATT against H2bc8 | inactive: -0.656 |
| GGCACUGGAUCUUACAGAATT against 1700034I23Rik | inactive: 0.542 |
| GGAGAUUUACUCACAGUUCTT against Kcnip4 | inactive: 1.26 |
| GGUCUGUCUCGUCUACAAUTT against Gstm1 | active: 2.98 |
| GGCAGAAUGGGAAAUGUAUTT against Htr7 | inactive: -0.841 |
| GGAAGCCACCUUAACAUUATT against Osgin1 | inactive: -0.814 |
| CCCUCAGUACCUAAUUAAGTT against Capn2 | inactive: -0.697 |
| GGAACUCCUAAAGAAGAGGTT against Galntl5 | inactive: 0.428 |
| CGAAUACGAAGCAGAAAAGTT against Smarce1 | inactive: 1.43 |
| GGAAGAUGCUUUUGUAAGUTT against Smyd4 | inactive: 0.698 |
| GCCAAUUUGGAUAUUCAUGTT against Spopl | inactive: -0.386 |
| GGAGUGUGUCUAUACUAUUTT against Otor | inactive: 1.56 |
| GGCUCAAAAUGUUCAAGCCTT against Trim12a | inactive: 1.35 |
| GGCAAGAAAUUCAAAAGCUTT against Supv3l1 | inactive: -0.524 |
| GCAUUUUGCCCAAUCAAGATT against Pcare | inactive: 0.696 |
| GGACUCUUUUUUUACCUUGTT against Trir | inactive: -1.61 |
| CAAGCAGUAAGGAUAUCCATT against Nlrp4e | inactive: -1.82 |
| CAUUGUCAUUCUGCUGGCATT against Olfr1249 | inactive: -0.0752 |

| Sequence | z-score |
| --- | --- |
| GCUGCACAAGUGCAUUUUUTT against Srp14 | inactive: -1.34 |
| GUGUGAAGUGCAGACUGAGTT against Trrap | inactive: -1.27 |
| AACAUUGCUUACCUUAGUGTT against Mrgprb1 | inactive: -1.11 |
| GGAGGUUUUCUGGUAGCUGTT against Rnf138 | inactive: -0.372 |
| GGGUUCUGCAUGUUGAUUCTT against Chm | inactive: -0.853 |
| GCAAAUUGAGCUCCUACUCTT against Traip | inactive: 0.178 |
| GCUAUGAAUCAGAAUGAAGTT against Bend6 | inactive: 0.134 |
| CCCUAUAUGAAUAACUCAUTT against Zfp300 | inactive: -0.498 |
| GCAUAUCCUCCAAAAGAAATT against 2010106E10Rik | inactive: -1.2 |
| GCAUCAGAGGGAUUUCACUTT against Slc35d3 | active: -2.68 |
| GAUGCAGUGCAAAGUAUACTT against Cldn9 | inactive: 1.7 |
| GCCUUAUCCCUCAUGUUACTT against Pde1c | inactive: 1.11 |
| CGUCUGUCUGUAUGAAAUUTT against Ttc39c | inactive: -0.0872 |
| CCUUAAGGCUGAUUGGGACTT against Nudt16l2 | inactive: 0.528 |
| GGUCCAGAGAAUGUUAUUATT against Spinkl | inactive: 0.263 |
| CCGAUGACGAACAGUUUGATT against Eif4ebp3 | active: 2.08 |
| GAAUAUACUCUUUGUGGUATT against Olfr1220 | inactive: 0.0434 |
| GGCAGAACAUUAAUAGAUATT against Polr3h | inactive: -1 |
| CGAGCAAUUAAAUUCCUGUTT against Api5 | inactive: 0.286 |
| GGGCUUACUGCUUAAUAGATT against Fundc2 | inactive: 0.481 |
| UCGAAGAUUGGUCUAAAUUTT against Tepp | inactive: 0.212 |
| GCCUUUUCCUGGUACUCGGTT against Ceacam13 | inactive: 1.36 |

| Sequence | z-score |
| --- | --- |
| GGUGUAUUUUGUGACUAUCTT against Ugt1a9 | inactive: 0.0698 |
| GGCUUCGCUCUGGUUUACUTT against Rap1b | inactive: 0.323 |
| CGGAUGGAGCUAUGAUGUGTT against Ndufs4 | inactive: -0.277 |
| GGACCAUCAGAGGAGAACUTT against Cuedc2 | active: -2.09 |
| GGAGAUUAUUAACUUCACCTT against Hcn3 | inactive: -0.895 |
| GGAUUUCCUUUUAAGACUUTT against Rab3il1 | inactive: -0.71 |
| GGACAUGAAGUGUAUAUAUTT against Il13ra2 | inactive: -0.511 |
| GGCCACAGAAUUGAAAGAUTT against Il2 | inactive: -0.622 |
| GCUGAAUACCCUUUUAGUUTT against Atp2c1 | inactive: 0.317 |
| GGAAGCAACAUGGAUACUATT against Mecom | inactive: 0.707 |
| CCUUUGUGACCAAGAUGGUTT against Ttyh3 | inactive: -0.0597 |
| GGCUAAAGUGAGCUCUUCATT against Nob1 | inactive: -0.947 |
| GCCUAUUCUUUUCGGGAUATT against Olfr39 | inactive: 1.13 |
| GGACAGUUAAUGUUUCUGUTT against Clptm1l | inactive: 0.254 |
| AAUGAUGCCAUAAAGAGUGTT against Olfr114 | inactive: -0.299 |
| GGACUAUAUGAGAUAAACUTT against Pask | inactive: 0.371 |
| GGAGACAGAGAAGAUUUGUTT against Mia2 | inactive: -0.21 |
| GGUACAGUUAACUACAAACTT against C130023O10Rik | inactive: 1.79 |
| GGAAAAGCAAACCAGAAUCTT against Nr1d1 | inactive: 0.66 |
| GGUGCUGUGUUUACGUUUGTT against Rpgr | inactive: 0.349 |
| GGUCUUUGAGAAGUACCACTT against Chst3 | inactive: -0.22 |
| CCUGUUAGCUAGAGUAGGATT against Skint7 | inactive: 0.76 |

Reprinted at random: two records from the list, in no set order.

| Sequence | z-score |
| --- | --- |
| GGUGUAUUUUGUGACUAUCTT against Ugt1a9 | inactive: 0.0698 |
| GGACAUGAAGUGUAUAUAUTT against Il13ra2 | inactive: -0.511 |

Reformatted: results already given.
Sequence	z-score
CCGAUGACGAACAGUUUGATT against Eif4ebp3	active: 2.08
GGAGAUUAUUAACUUCACCTT against Hcn3	inactive: -0.895

Going on with the list:

| Sequence | z-score |
| --- | --- |
| GCGAUUGAGCAGUGAAUAATT against Fam216b | inactive: 1.06 |
| CGGUAAUUGCAUUUUAAAGTT against Vps4b | inactive: 0.618 |
| CGAAGCAACAAGGAAAUUGTT against Anxa13 | inactive: 0.465 |
| GGCCAAUUUGUUGAUUCCUTT against Rheb | inactive: -1.32 |
| GAUAAUGACCAGGCUACCATT against Magea7-ps | inactive: 0.069 |
| CCAUAGGUAUCAUUGCAAGTT against Tas2r139 | active: -2.16 |
| GGCCUGAGAGUAACUCAAATT against Fhit | inactive: -0.21 |
| GGAAGAAAAGGUAUUUCUUTT against Sub1 | inactive: 0.438 |
| CCAUAUAUGAUAGGAAACUTT against Pon2 | inactive: -0.288 |
| CGGUGCUUCUGAAACUAGATT against Lrrc3 | inactive: 1.69 |
| GGCAAAUAGUUUCUUCAAUTT against Npnt | inactive: -0.485 |
| GGAAUUCUUCAUCCAUGGATT against Olfr570 | active: -2.66 |
| GGUGAACAUAGAUCACGAGTT against Rgs16 | inactive: -0.54 |
| GGGAUUCAUACUACUUAACTT against Olfr304 | inactive: 1.32 |
| GGGUUCGAUACGACUGCCATT against Arhgef7 | inactive: -0.798 |
| GGCUCAACGGCUUAGGGAATT against B3gat3 | inactive: 1.42 |
| GCCGAAUCCGAACAAAACCTT against Tat | inactive: 0.263 |
| GGAUCACUAACUUUUCCAATT against Trpc3 | active: 3.46 |
| GCACACCAGAUCUACUUCUTT against Cyp2b9 | inactive: 0.3 |

5 entries from above, tab-delimited.
Sequence	z-score
GGCCAAUUUGUUGAUUCCUTT against Rheb	inactive: -1.32
GAUAAUGACCAGGCUACCATT against Magea7-ps	inactive: 0.069
CCAUAGGUAUCAUUGCAAGTT against Tas2r139	active: -2.16
GGCCUGAGAGUAACUCAAATT against Fhit	inactive: -0.21
GGAAGAAAAGGUAUUUCUUTT against Sub1	inactive: 0.438
